In PubChem BioAssay AID2685 (National Center for Advancing Translational Sciences (NCATS), 2010):
Some of the results follow. These are further read-outs of the screen, such as a control signal, another cell line or another target. No call is given for them. Most of these compounds were active or inconclusive in the main read-out, so they are no random draw. Words in brackets tell the shape of the fitted curve; partial curves, single points and poor fits give uncertain potencies.

Test: qHTS Assay for Lipid Storage Modulators in Drosophila S3 Cells;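 for cell number change: cells counted by Cell Tracker Red CMTPX staining in the red channel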
Settings: BODIPY lipid droplet fluorescence, 18-24 h; for cell number change: measured here: cell count max response, cells fed with added oleic acid
How it was run: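 Drosophila S3 cells got compounds at several concentrations plus oleic acid (400 uM solution). Laser-scanning cytometry with 488 nm excitation read lipid droplets at 500-530 nm and cells at 575-640 nm. Percent activity was relative to 20 uM Triacsin C.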

[1] = measured here: cell number channel AC50, cells fed with added oleic acid
[2] = measured here: lipid fluorescence (Fed channel) AC50, cells fed with added oleic acid

SMILES | cell number change | AC50 [1] | AC50 [2]
OC[C@H]1O[C@@H](n2cnc3c(NC4CCCC4)ncnc32)[C@H](O)[C@@H]1O | 39.6% | 23.1 µM [rising, single point] | 1.64 µM [rising, full curve, poor fit]
Cc1ccc(N(CC(=O)Nc2ccc(C)cn2)S(=O)(=O)c2c(C)nn(C)c2C)cc1 | -2.48% |  | 14.6 µM [rising, partial curve, poor fit]
CC(C)(C)SCCNS(=O)(=O)c1ccc(Cl)cc1 | 8% |  | 2.59 µM [falling, full curve]
O=C(CSc1nnc(NC(=O)C2CC(=O)N(c3ccc(F)cc3)C2)s1)NCc1ccco1 (configuration not stated) | -26.1% |  | 0.206 µM [falling, full curve, poor fit]
CCOC(=O)N1CCN(S(=O)(=O)c2cc3c(cc2C)NC(=O)CO3)CC1 | 9.93% |  | 7.31 µM [rising, partial curve, poor fit]
Cc1cccc(NC(=O)c2ccc(N(C)C3CCCCC3)c([N+](=O)[O-])c2)n1 |  | 0.0058 µM [falling, full curve, poor fit] | 
COc1ccc(NC(=O)C2CCN(S(C)(=O)=O)CC2)c(OC)c1 | 15.8% |  | 29.1 µM [rising, single point]
O=C(NCC1CCCO1)c1cccc2ccccc12 (configuration not stated) | 4.2% |  | 29.1 µM [falling, single point]
CSc1ncc(C(=O)Nc2ccc(C(C)=O)cc2)c(-c2ccccc2)n1 | -24.6% |  | 9.2 µM [falling, partial curve]
CCN(CC)S(=O)(=O)c1ccc2oc(C(=O)Nc3ccc(OC)cc3OC)c(C)c2c1 | 0.14% |  | 
O=C(NC1CCCCC1)C1CCN(c2cnccn2)CC1 | -7.09% |  | 0.00461 µM [rising, full curve, poor fit]
Cc1ccccc1C(=O)NCC(=O)OC(C)C(=O)Nc1ccnn1C(C)C (configuration not stated) | -42.5% | 11.6 µM [falling, single point] | 9.2 µM [falling, partial curve]
COC(=O)CCCC1=CC2=C(c3ccccc3)C(=O)C(C)(OC(=O)C3CCCC3)C(=O)C2=CN1c1ccc(OC)cc1 (configuration not stated) | -31.2% | 18.4 µM [falling, single point] | 
Cc1cc(N2CCN(C(=O)c3ccco3)CC2)n2nc(-c3cccc(Cl)c3)cc2n1 | -84.7% | 13 µM [falling, partial curve] | 16.4 µM [falling, partial curve]
CCOC(=O)/C(=N\Nc1cc(Cl)ccc1Cl)N1CCN(CC)CC1 | -31% | 29.1 µM [falling, single point] | 20.6 µM [falling, single point]
COc1ccc(C(=O)/C=C/C(=O)N(CC(=O)NC2CCCCC2)CC2CCCO2)c(O)c1 (configuration not stated) | -69.7% | 11.6 µM [falling, partial curve] | 11.6 µM [falling, partial curve]
CC(=O)N1c2ccccc2-c2nc3ccccc3n2C1C (configuration not stated) | 30.3% |  | 
CCCc1cc(=O)[nH]c(SCC(=O)N(C)C2CCCCC2)n1 | 38.5% | 16.4 µM [rising, partial curve] | 8.2 µM [rising, partial curve]
CC12c3ccccc3C(c3ccccc31)C1C(=O)N(Cc3cccnc3)C(=O)C12 (configuration not stated) |  |  | 0.731 µM [rising, single point]
Cc1sc2nc(SC(C)C)nc(N)c2c1C | -26% |  | 

Exported as tab-separated lines: part of the list above
SMILES	cell number change	AC50 [1]	AC50 [2]
CCOC(=O)/C(=N\Nc1cc(Cl)ccc1Cl)N1CCN(CC)CC1	-31%	29.1 µM [falling, single point]	20.6 µM [falling, single point]
COc1ccc(C(=O)/C=C/C(=O)N(CC(=O)NC2CCCCC2)CC2CCCO2)c(O)c1 (configuration not stated)	-69.7%	11.6 µM [falling, partial curve]	11.6 µM [falling, partial curve]
CC(=O)N1c2ccccc2-c2nc3ccccc3n2C1C (configuration not stated)	30.3%		

Additional structures follow:

SMILES | cell number change | AC50 [1] | AC50 [2]
COc1ccc(CN(C)C(=O)c2ccc(COc3ccccc3)cc2)c(OC)c1 | 32.2% | 0.461 µM [rising, full curve, poor fit] | 0.0291 µM [rising, single point]
COc1ccc(CCNc2ccc(C(CC(N)=O)NC(=O)c3ccc(Br)cc3)cc2[N+](=O)[O-])cc1 (configuration not stated) | 13.5% |  | 11.6 µM [rising, partial curve]
COc1ccc(-c2nnc(-c3ccc(N)cc3)o2)cc1 |  | 1.3 µM [rising, partial curve] | 1.3 µM [rising, full curve]
CCC(Sc1nc2n[nH]c(C)c2c(=N)n1-c1ccc(C)c(Cl)c1)C(=O)N1CCOCC1 (configuration not stated) |  |  | 1.84 µM [rising, partial curve]
COc1ccc(-c2cc(C(=O)N3CCN(c4ccccc4OC)CC3)no2)cc1 | 36.2% | 7.31 µM [rising, partial curve, poor fit] | 29.1 µM [rising, partial curve]
CC(C)CC(NC(=O)C1CCC(C)CC1)C(=O)NCc1ccccn1 (configuration not stated) | -46.8% | 25.9 µM [falling, single point] | 
COc1ccc(C(CNC(=O)c2cc(=O)[nH]c3ccccc23)N2CCCC2)cc1 (configuration not stated) | 7.67% |  | 2.59 µM [falling, single point]
Nc1cc(S(=O)(=O)O)cc([N+](=O)[O-])c1O | -108% | 23.1 µM [falling, partial curve, poor fit] | 
O=C(NCc1nnc(SCc2ccc(C(F)(F)F)cc2)n1-c1ccccc1)C12CC3CC(CC(C3)C1)C2 | -46.9% | 18.4 µM [falling, single point] | 23.1 µM [falling, single point]
COc1ccccc1NC(=O)c1cc(Cl)nnc1Cl | -38.2% | 16.4 µM [falling, single point] | 
Cc1csc(N2CCc3ccccc32)n1 | -0.405% |  | 
CSc1ccccc1NC(=O)CN(C)C(=O)Cc1c(F)cccc1Cl | 13.3% |  | 
CCc1ccccc1Cn1c(=O)oc2cccnc21 | 13.3% |  | 1.16 µM [falling, partial curve, poor fit]
COc1ccccc1Sc1nc(-c2ccccn2)ncc1OC | 27.5% |  | 29.1 µM [rising, single point]
CCOC(=O)C1CCCN(C2=NC(=O)/C(=C/c3ccc(OC)cc3OC)S2)C1 (configuration not stated) | -16.2% |  | 
O=C(c1ccco1)N(Cc1cccc(Cl)c1)C1CCS(=O)(=O)C1 (configuration not stated) | 23.2% |  | 4.61 µM [falling, single point]
O=C(/C=C/c1ccc(F)cc1)NC(=S)N1CCN(c2ccccn2)CC1 | 26.7% |  | 14.6 µM [rising, partial curve, poor fit]
O/N=C(\c1ccccc1)c1nccc2ccccc12 | 8.9% |  | 29.1 µM [rising, single point]
Cc1ccccc1C(=O)NNC(=S)Nc1cccc(C(F)(F)F)c1 | -12.5% |  | 1.16 µM [rising, partial curve, poor fit]
COC(=O)c1cccc(NC(=O)CCc2ccccc2)c1 |  |  | 23.1 µM [rising, single point]

SMILES | cell number change | AC50 [1] | AC50 [2]
CC(C(=O)NCC1CCCO1)N1C(=O)C2C3CC(C(Br)C3Br)C2C1=O (configuration not stated) | -44.9% | 10.3 µM [falling, partial curve, poor fit] | 
CCn1c(/C=C/N(C)c2ccccc2)[n+](CC)c2ccc(Cl)cc21 | -37.3% | 20.6 µM [falling, single point] | 29.1 µM [falling, single point]
COc1ccc(-c2noc(CN(C(=O)C(C)(C)C)C(C)C)n2)cc1 |  | 0.184 µM [rising, full curve, poor fit] | 
Cc1cccc(-c2noc(CCCOc3ccc(Cl)cc3Cl)n2)c1 | 23.3% |  | 6.51 µM [rising, single point]
CC1CN(CC(=O)c2c(N)n(Cc3ccccc3)c(=O)n(C)c2=O)CC(C)O1 (configuration not stated) | 11.2% |  | 11.6 µM [falling, partial curve]
Cc1ccc(C(=O)NNC(=O)CSc2nnc(C3CC3)n2C)cc1 | 30% | 1.64 µM [rising, full curve, poor fit] | 
CC1CCCN(C(=O)c2ccc3c(=O)n(Cc4ccc5c(c4)OCO5)c(=S)[nH]c3c2)C1 (configuration not stated) | -12% |  | 
CCOC(=O)C1CCN(C(=O)c2oc3ccc(S(=O)(=O)N4CC(C)CC(C)C4)cc3c2C)CC1 (configuration not stated) | -21.4% |  | 0.461 µM [falling, single point]
CS(=O)(=O)N1CCN(c2ccc([N+](=O)[O-])c(SCc3ccco3)c2)CC1 | 6.06% | 0.651 µM [falling, single point] | 
CCN(c1ccc(C(=O)CN2C(=O)NC3(CCOc4ccccc43)C2=O)cc1)S(C)(=O)=O (configuration not stated) | -11.7% | 6.51 µM [falling, single point] | 6.51 µM [falling, partial curve, poor fit]
COc1cc(=O)n(C)c2c(OCC3OC(C)(C)OC3(C)C)cccc12 (configuration not stated) | -67.1% | 3.26 µM [falling, partial curve] | 0.291 µM [falling, partial curve, poor fit]
COc1ccc(-n2nc(C(=O)NCC(=O)Nc3cccc(C)n3)c3ccccc3c2=O)cc1 | 14.3% | 0.082 µM [rising, full curve, poor fit] | 0.13 µM [rising, full curve, poor fit]
CCCNC(=O)Cc1c(C)oc2ccccc12 | 17.1% |  | 
Cc1ccc(N2C(=O)C3C4C=CC(CC4)C3C2=O)cc1Cl (configuration not stated) | 20.2% |  | 
O=C1c2ccccc2C(O)(Cc2ccccc2)N1c1ccc2c(c1)OCO2 (configuration not stated) |  | 2.59 µM [rising, partial curve] | 2.91 µM [rising, partial curve]
CC(NS(=O)(=O)/C=C/c1ccccc1)c1ccccc1 (configuration not stated) | 28.4% |  | 
CCOC(=O)c1c(-c2ccccc2Cl)cn2ccccc12 |  | 0.58 µM [falling, single point] | 
COc1ccc(N2CCN(C(=O)COc3ncnc4ccccc34)CC2)cc1 | 13.9% |  | 

Grouped by structure: those above containing a tert-butyl group
SMILES | cell number change | AC50 [1] | AC50 [2]
CC(C)(C)SCCNS(=O)(=O)c1ccc(Cl)cc1 | 8% |  | 2.59 µM [falling, full curve]
COc1ccc(-c2noc(CN(C(=O)C(C)(C)C)C(C)C)n2)cc1 |  | 0.184 µM [rising, full curve, poor fit] | 
